Measured values reported in the supplement of paper PMC8728848.
The list shows a part of the results.

Key:
Test in all cases: glycan array binding signal (z-score within array); higher = stronger binding
Conditions in all cases: glycan notation: IUPAC condensed, linker removed
[1] = target: Gal(b1-4)GlcNAc(b1-6)Gal(b1-4)GlcNAc
Summary of the method: (§1)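 Glycan array data came from 3228 arrays in the Consortium for Functional Glycomics database, and only arrays with an available protein sequence were kept. Glycan names were put into IUPAC-condensed notation, and columns mapping to the same glycan were averaged. The binding signal is a within-array Z-score, averaged across arrays of one protein sequence run at different concentrations or buffers and across linkers. A negative Z-score can be read as non-binding.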

[2] = target: Gal(b1-4)GlcNAc(b1-6)GalNAc
Summary of the method: as §1

[3] = target: Gal(b1-4)GlcNAc(b1-6)[Gal(b1-3)]GalNAc
Summary of the method: as §1

[4] = target: Gal(b1-4)GlcNAc(b1-6)[Gal(b1-4)GlcNAc(b1-3)]GalNAc
Summary of the method: as §1

Gal(b1-4)GlcNAc6P = target: Gal(b1-4)GlcNAc6P
Summary of the method: as §1

Gal(b1-6)Gal = target: Gal(b1-6)Gal
Summary of the method: as §1

Gal3S(b1-3)GalNAc = target: Gal3S(b1-3)GalNAc
Summary of the method: as §1

Gal3S(b1-3)GlcNAc = target: Gal3S(b1-3)GlcNAc
Summary of the method: as §1

[5] = target: Gal3S(b1-3)[Fuc(a1-4)]GlcNAc
Summary of the method: as §1

Gal3S(b1-4)Glc = target: Gal3S(b1-4)Glc
Summary of the method: as §1

Gal3S(b1-4)Glc6S = target: Gal3S(b1-4)Glc6S
Summary of the method: as §1

Gal3S(b1-4)GlcNAc = target: Gal3S(b1-4)GlcNAc
Summary of the method: as §1

[6] = target: Gal3S(b1-4)[Fuc(a1-3)]Glc6S
Summary of the method: as §1

[7] = target: Gal3S(b1-4)[Fuc(a1-3)]GlcNAc
Summary of the method: as §1

[8] = target: Gal3S(b1-4)[Fuc(a1-3)]GlcNAc6S
Summary of the method: as §1

Gal3S4S(b1-4)GlcNAc = target: Gal3S4S(b1-4)GlcNAc
Summary of the method: as §1

Gal3S6S(b1-4)GlcNAc = target: Gal3S6S(b1-4)GlcNAc
Summary of the method: as §1

Gal3S6S(b1-4)GlcNAc6S = target: Gal3S6S(b1-4)GlcNAc6S
Summary of the method: as §1

Gal4S(b1-4)GlcNAc = target: Gal4S(b1-4)GlcNAc
Summary of the method: as §1

Gal4S6S(b1-4)GlcNAc = target: Gal4S6S(b1-4)GlcNAc
Summary of the method: as §1

Gal6P(b1-4)GlcNAc = target: Gal6P(b1-4)GlcNAc
Summary of the method: as §1

Gal6S(b1-3)GlcNAc = target: Gal6S(b1-3)GlcNAc
Summary of the method: as §1

Gal6S(b1-3)GlcNAc6S = target: Gal6S(b1-3)GlcNAc6S
Summary of the method: as §1

B1: cFel (Cyprinus carpio), P68512 (protein)
chain: LDCTVIDGNLKQIDAGSGSVVGVNNLNETFVLIDNVFTKISGSLKHFSVGPAGQLGVNTANNIFKYQSGGFVQLAGLLKQVDAGGDQIIAGVNMYDDIYCLNMDANNKWPSSNTPWVQINGKLKYYSCGPYSCWGVNSNDQIFIMKDVSSNVCSGSGSFINIPGLLSMIEVATDGSVFGVNSQGNLYQRTGVTRSKPDGTDWISMVACPNGHKHVSFDLGVLWLVCVDGSIRKCILTD
glycan array binding signal (z-score) [1]: 1.2
glycan array binding signal (z-score) [2]: 1.54
glycan array binding signal (z-score) [3]: 1.42
glycan array binding signal (z-score) [4]: 0.528
glycan array binding signal (z-score) (Gal(b1-4)GlcNAc6P): -0.519
glycan array binding signal (z-score) (Gal(b1-6)Gal): 0.54
glycan array binding signal (z-score) (Gal3S(b1-3)GalNAc): -0.627
glycan array binding signal (z-score) (Gal3S(b1-3)GlcNAc): -0.636
glycan array binding signal (z-score) [5]: -1.14
glycan array binding signal (z-score) (Gal3S(b1-4)Glc): 1.24
glycan array binding signal (z-score) (Gal3S(b1-4)Glc6S): -0.538
glycan array binding signal (z-score) (Gal3S(b1-4)GlcNAc): -0.182
glycan array binding signal (z-score) [6]: 0.52
glycan array binding signal (z-score) [7]: -0.127
glycan array binding signal (z-score) [8]: -0.189
glycan array binding signal (z-score) (Gal3S4S(b1-4)GlcNAc): 0.577
glycan array binding signal (z-score) (Gal3S6S(b1-4)GlcNAc): -0.768
glycan array binding signal (z-score) (Gal3S6S(b1-4)GlcNAc6S): 0.715
glycan array binding signal (z-score) (Gal4S(b1-4)GlcNAc): -0.917
glycan array binding signal (z-score) (Gal4S6S(b1-4)GlcNAc): 0.956
glycan array binding signal (z-score) (Gal6P(b1-4)GlcNAc): 0.206
glycan array binding signal (z-score) (Gal6S(b1-3)GlcNAc): 0.065
glycan array binding signal (z-score) (Gal6S(b1-3)GlcNAc6S): 0.233
